Paper PMC12579213
These are yes or no findings as the source states them, for the method shown. Binding can be weak; no strength is given. Sequences can lack the tags named with a protein.

By UniProt entry, the sequences of proteins in these tests, tags left out. Where a name states a change or a piece, a line headed by the entry shows the natural chain unless it says otherwise.
UniProt P60953: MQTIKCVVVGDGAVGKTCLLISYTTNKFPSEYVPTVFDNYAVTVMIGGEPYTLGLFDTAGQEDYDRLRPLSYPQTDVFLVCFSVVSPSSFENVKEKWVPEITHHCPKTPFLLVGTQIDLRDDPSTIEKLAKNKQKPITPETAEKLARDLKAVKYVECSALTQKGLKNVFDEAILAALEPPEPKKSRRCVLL
UniProt P61586: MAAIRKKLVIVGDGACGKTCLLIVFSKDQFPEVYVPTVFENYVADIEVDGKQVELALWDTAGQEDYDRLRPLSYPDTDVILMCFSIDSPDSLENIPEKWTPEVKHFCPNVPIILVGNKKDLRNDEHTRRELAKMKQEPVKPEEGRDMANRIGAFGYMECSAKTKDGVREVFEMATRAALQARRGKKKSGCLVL

The binders below were run against DsRed-Cdc42h (Q61L, ΔCAAX) (UniProt P60953) (assay: INSPECT (co-condensation of proteins fused to a tetrameric RFP and to ferritin, imaged in living cells); DsRed-small GTPase (bait) and effector-CFP-FT (prey) co-transfected; co-localized condensates counted; efficiency, SNR and protein interaction index (PI)).

Binder	binding
EISAPSNFEHRVHTGFDQHEQKFTGLPRQWQSLIEESARRPKPLVD (domain or fragment, UniProt O96013 10-55) [CRIB_(PAK4)-CFP-FT]	binds
EISAPQNFQHRVHTSFDPKEGKFVGLPPQWQNILDTLRRPKPVVD (domain or fragment, UniProt Q9NQU5 11-55) [CRIB_(PAK6)-CFP-FT]	binds
ISGPSNFEHRVHTGFDPQEQKFTGLPQQWHSLLADTANRPKPMVD (domain or fragment, UniProt Q9P286 11-55) [CRIB_(PAK7)-CFP-FT]	binds
REMLRDPEMRNKLISNPTNFNHIAHMGPGDGIQILK (domain or fragment, UniProt Q5VT25 1558-1593) [RBD_(MRCKα)-CFP-FT]	binds
ISNPTNFNHVAHMGPGDGMQVLMDLPLSAVPPSQEER (domain or fragment, UniProt Q9Y5S2 1583-1619) [RBD_(MRCKβ)-CFP-FT]	binds
RBD_(ROCK2)-CFP-FT (domain or fragment, UniProt O75116 964-1045) KDATIASLEETNRTLTSDVANLANEKEELNNKLKDVQEQLSRLKDEEISAAAIKAQFEKQLLTERTLKTQAVNKLAEIMNRK	binds weakly
RBD_(DAAM2)-CFP-FT (domain or fragment, UniProt Q86T65 41-229) PIPNAEELNIRFAELVDELDLTDKNREAMFALPPEKKWQIYCSKKKEQEDPNKLATSWPDYYIDRINSMAAMQSLYAFDEEETEMRNQVVEDLKTALRTQPMRFVTRFIELEGLTCLLNFLRSMDHATCESRIHTSLIGCIKALMNNSQGRAHVLAQPEAISTIAQSLRTENSKTKVAVLEILGAVCLV	binds
RBD_(DIAPH2)-CFP-FT (domain or fragment, UniProt O60879 88-272) PAAQPLYDERSLNLSEKEVLDLFEKMMEDMNLNEEKKAPLRNKDFTTKREMVVQYISATAKSGGLKNSKHECTLSSQEYVHELRSGISDEKLLNCLESLRVSLTSNPVSWVNNFGHEGLGLLLDELEKLLDKKQQENIDKKNQYKLIQCLKAFMNNKFGLQRILGDERSLLLLARAIDPKQPNMM	binds
RBD_(DIAPH3)-CFP-FT (domain or fragment, UniProt Q9NSV4 118-287) SENELLELFEKMMEDMNLNEDKKAPLREKDFSIKKEMVMQYINTASKTGSLKRSRQISPQEFIHELKMGSADERLVTCLESLRVSLTSNPVSWVESFGHEGLGLLLDILEKLISGKIQEKVVKKNQHKVIQCLKALMNTQYGLERIMSEERSLSLLAKAVDPRHPNMMTD	binds

These binders were tested against DsRed-RhoA (Q63L, ΔCAAX) (UniProt P61586) in the same assay as above.

Binder	binding
RBD_(ROCK2)-CFP-FT (domain or fragment, UniProt O75116 964-1045) KDATIASLEETNRTLTSDVANLANEKEELNNKLKDVQEQLSRLKDEEISAAAIKAQFEKQLLTERTLKTQAVNKLAEIMNRK	binds
